Results are given in words; binding and its absence hold for the method and conditions named.
Target: Beclin1 BH3 domain peptides on the Beclin1 peptide array (residues 105-125) (UniProt Q14457)
Assay: peptide or protein array; 16mer peptide array of Beclin1 residues 1-450 on membrane, overlaid with recombinant DIRAS3 at 1 µg/mL in 1% BSA/PBS, 2 h at room temperature; detected with primary and secondary antibody, HRP; both purified

Amino acid sequences for entries named in this document (tags omitted). Residues count along the entry.
UniProt Q14457, residues 105-125: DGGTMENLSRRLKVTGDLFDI
UniProt O95661: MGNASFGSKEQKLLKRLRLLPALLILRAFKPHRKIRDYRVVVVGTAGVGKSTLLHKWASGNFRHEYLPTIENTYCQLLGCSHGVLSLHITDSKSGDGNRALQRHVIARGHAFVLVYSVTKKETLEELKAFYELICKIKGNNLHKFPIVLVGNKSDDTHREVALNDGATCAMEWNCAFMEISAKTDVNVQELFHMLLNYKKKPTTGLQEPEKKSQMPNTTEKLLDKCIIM

binding: no binding (tested: 1 µg/mL)
Substance: DIRAS3 recombinant protein (from UniProt O95661 1-229)

From article PMC6521623, “DIRAS3-Derived Peptide Inhibits Autophagy in Ovarian Cancer Cells by Binding to Beclin1” (Cancers, 2019)
